Test results reported in the supplement of paper PMC10849652.
The list shows a part of the results.

Protein sequences, listed by entry. Tags and fused reporters are not part of them. Lines headed by an entry give the natural chain unless they say otherwise; changes in a name come on top.
UniProt O95613: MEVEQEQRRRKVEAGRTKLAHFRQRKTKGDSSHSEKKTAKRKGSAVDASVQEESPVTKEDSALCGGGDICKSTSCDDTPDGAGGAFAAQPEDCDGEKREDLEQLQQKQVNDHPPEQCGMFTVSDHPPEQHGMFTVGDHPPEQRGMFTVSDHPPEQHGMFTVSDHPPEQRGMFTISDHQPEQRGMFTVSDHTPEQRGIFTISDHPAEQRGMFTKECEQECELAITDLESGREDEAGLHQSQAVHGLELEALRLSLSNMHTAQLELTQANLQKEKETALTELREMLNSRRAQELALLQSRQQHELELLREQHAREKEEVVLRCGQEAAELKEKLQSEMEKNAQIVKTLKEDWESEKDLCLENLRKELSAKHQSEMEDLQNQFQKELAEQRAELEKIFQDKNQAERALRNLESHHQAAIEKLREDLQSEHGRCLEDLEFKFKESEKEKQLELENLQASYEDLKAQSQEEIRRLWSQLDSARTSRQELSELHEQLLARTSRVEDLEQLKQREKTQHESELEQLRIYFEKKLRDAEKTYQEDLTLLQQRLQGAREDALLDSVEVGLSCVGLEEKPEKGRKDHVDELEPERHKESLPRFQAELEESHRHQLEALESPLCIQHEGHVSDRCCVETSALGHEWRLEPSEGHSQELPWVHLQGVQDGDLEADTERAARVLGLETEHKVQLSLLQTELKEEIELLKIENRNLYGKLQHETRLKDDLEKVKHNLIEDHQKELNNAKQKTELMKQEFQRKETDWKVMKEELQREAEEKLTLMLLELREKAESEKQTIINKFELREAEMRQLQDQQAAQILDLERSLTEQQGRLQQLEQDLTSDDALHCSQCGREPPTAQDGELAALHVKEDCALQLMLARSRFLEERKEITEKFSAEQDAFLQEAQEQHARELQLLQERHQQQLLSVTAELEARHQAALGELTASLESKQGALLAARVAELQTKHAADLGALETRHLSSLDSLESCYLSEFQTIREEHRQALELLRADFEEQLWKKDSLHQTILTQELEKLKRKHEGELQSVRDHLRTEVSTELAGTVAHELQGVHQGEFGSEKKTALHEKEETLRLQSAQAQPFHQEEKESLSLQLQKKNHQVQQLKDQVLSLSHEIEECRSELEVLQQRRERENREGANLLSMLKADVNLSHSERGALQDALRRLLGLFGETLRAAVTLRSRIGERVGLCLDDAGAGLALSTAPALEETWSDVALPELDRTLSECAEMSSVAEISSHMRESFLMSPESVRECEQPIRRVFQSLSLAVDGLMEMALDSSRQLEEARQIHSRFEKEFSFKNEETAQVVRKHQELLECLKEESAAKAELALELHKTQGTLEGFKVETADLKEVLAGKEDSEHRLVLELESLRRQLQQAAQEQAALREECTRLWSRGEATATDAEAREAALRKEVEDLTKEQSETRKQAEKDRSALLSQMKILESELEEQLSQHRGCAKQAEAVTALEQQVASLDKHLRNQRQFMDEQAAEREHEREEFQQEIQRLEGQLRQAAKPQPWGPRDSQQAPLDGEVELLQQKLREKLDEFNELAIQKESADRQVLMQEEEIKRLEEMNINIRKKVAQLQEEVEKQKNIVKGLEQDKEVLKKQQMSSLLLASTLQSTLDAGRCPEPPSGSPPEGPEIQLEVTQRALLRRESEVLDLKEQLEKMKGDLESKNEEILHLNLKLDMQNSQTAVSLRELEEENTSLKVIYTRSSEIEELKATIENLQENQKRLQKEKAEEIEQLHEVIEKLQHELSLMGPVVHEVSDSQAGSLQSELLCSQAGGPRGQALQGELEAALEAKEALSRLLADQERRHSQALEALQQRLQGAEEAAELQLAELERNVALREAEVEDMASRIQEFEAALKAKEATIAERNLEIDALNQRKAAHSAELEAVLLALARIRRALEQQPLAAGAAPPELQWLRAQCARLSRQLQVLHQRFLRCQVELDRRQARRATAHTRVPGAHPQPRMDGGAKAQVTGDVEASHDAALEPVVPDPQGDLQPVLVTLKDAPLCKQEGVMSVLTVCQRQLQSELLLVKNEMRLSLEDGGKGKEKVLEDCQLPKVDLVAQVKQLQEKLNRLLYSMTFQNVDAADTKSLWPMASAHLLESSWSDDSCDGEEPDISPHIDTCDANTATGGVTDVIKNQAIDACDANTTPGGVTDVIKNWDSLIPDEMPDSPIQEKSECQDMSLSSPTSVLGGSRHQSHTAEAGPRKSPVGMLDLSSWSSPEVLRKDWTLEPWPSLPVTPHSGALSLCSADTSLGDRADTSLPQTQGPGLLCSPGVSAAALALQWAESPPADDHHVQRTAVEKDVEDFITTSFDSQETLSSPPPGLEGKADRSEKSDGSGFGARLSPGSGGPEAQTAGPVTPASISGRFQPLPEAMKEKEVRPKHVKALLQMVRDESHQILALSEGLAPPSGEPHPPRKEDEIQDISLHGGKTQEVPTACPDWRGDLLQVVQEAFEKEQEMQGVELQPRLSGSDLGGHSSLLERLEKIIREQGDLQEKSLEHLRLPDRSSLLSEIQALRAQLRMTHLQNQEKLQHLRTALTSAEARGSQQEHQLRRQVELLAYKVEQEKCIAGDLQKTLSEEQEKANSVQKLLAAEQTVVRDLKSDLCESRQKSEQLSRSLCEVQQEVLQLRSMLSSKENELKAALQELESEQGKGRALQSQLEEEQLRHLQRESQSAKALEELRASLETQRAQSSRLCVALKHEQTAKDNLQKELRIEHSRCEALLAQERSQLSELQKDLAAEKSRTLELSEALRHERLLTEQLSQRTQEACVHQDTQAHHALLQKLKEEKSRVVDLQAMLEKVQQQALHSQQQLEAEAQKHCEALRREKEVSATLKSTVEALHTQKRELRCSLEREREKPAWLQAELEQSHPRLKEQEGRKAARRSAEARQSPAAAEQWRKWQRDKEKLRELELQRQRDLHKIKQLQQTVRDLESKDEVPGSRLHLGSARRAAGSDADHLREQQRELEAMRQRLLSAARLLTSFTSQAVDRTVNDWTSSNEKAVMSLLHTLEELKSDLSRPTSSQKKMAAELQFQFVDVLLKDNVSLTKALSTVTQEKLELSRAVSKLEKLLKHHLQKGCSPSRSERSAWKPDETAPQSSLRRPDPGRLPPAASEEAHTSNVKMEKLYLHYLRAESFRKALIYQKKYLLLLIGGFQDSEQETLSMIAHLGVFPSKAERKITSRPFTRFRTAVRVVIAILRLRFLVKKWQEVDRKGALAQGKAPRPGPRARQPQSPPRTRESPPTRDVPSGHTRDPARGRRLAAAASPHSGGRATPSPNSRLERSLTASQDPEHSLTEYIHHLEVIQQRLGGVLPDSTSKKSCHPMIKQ
UniProt P17858: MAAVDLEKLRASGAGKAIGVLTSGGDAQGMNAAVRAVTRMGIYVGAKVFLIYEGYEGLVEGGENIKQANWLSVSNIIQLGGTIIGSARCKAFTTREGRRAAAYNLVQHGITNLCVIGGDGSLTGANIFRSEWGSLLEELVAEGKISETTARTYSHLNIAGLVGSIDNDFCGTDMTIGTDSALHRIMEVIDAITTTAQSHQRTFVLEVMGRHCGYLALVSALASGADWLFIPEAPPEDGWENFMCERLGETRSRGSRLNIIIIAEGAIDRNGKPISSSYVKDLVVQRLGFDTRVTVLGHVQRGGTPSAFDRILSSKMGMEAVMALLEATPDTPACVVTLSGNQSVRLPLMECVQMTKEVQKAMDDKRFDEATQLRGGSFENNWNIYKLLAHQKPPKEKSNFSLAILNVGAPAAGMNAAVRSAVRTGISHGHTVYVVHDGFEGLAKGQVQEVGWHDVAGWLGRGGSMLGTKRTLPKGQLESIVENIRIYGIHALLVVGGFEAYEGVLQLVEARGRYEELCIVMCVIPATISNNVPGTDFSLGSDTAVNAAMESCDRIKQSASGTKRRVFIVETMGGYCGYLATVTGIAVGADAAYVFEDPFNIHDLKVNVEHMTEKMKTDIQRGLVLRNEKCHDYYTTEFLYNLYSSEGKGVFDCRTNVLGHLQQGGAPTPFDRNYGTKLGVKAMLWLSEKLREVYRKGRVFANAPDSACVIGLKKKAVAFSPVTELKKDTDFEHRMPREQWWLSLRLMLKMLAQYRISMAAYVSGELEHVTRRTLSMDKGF
UniProt Q5JVF3: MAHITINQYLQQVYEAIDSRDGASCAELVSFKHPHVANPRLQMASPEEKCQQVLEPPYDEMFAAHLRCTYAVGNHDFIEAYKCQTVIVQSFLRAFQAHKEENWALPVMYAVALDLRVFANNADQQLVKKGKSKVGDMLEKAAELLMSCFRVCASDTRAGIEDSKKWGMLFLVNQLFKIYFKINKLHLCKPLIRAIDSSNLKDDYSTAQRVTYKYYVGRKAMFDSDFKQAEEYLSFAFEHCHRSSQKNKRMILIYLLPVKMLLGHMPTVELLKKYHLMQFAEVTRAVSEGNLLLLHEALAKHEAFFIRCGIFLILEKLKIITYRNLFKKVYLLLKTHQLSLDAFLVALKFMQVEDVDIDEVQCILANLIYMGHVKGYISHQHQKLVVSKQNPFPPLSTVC
UniProt Q92968: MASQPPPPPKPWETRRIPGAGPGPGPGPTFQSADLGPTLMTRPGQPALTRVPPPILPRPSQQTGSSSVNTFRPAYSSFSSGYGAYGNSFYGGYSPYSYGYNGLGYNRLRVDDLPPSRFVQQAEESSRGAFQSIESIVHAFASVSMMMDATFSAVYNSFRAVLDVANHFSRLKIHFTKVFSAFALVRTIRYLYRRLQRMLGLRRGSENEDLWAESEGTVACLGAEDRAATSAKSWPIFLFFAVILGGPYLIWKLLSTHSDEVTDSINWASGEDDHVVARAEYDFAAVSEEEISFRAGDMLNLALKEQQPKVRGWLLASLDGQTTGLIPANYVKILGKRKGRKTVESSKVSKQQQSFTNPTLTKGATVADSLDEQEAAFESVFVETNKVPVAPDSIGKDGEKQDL
UniProt Q8WUM4: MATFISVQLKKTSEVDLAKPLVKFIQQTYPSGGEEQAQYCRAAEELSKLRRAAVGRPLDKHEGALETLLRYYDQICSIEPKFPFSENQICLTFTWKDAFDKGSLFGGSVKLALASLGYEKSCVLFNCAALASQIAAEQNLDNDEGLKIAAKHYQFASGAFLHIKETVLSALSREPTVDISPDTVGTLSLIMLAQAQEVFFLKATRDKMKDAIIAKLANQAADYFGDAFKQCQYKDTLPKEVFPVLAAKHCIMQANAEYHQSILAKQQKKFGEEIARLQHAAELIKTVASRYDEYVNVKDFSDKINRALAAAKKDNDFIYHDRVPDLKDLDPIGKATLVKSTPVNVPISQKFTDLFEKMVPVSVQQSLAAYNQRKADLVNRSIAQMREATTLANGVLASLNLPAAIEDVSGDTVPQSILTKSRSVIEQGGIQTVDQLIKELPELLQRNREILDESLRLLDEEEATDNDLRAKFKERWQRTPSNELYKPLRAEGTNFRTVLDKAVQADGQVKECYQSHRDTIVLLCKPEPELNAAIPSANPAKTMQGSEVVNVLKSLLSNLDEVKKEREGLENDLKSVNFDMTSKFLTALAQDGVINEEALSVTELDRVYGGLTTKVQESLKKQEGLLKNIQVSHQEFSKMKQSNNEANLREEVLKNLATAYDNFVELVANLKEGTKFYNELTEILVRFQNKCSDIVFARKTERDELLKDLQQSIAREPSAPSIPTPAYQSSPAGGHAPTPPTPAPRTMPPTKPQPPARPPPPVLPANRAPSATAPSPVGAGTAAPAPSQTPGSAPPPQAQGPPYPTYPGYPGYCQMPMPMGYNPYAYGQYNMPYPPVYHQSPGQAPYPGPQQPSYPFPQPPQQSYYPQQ
UniProt Q96HC4: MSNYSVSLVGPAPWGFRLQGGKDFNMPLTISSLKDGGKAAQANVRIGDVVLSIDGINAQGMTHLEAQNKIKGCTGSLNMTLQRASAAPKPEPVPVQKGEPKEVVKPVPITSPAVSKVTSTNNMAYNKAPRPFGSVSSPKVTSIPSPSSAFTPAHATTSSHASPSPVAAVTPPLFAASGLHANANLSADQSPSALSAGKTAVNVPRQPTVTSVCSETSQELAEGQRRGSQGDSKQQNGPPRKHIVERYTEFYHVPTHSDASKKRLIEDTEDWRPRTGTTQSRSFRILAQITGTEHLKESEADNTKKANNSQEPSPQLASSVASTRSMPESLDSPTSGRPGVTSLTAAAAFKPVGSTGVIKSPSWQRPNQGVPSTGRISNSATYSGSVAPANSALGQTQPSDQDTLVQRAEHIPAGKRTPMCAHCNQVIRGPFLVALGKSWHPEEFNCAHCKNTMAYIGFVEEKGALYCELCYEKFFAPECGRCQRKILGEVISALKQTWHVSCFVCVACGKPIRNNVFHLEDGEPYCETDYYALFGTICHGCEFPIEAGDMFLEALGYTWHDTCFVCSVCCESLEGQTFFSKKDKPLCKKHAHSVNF
UniProt O43924: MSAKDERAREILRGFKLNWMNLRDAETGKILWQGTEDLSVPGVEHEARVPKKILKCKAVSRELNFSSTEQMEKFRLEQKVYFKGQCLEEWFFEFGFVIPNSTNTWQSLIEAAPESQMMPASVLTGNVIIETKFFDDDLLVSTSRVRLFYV

Legend:
Test in all cases: log2 fold change, soluble protein after heating vs DMSO (PISA); higher = thermal stabilisation; K562 lysate, 10 uM; active = over 0.2 and 3.5 SD of the protein, either way, in both replicates (recomputed)
nilotinib = compound: Cc1cn(-c2cc(NC(=O)c3ccc(C)c(Nc4nccc(-c5cccnc5)n4)c3)cc(C(F)(F)F)c2)cn1 [nilotinib]
How it was run: (§1)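 Dounce homogenisation of K562 pellets in PBS pH 7.4 with 1 mM MgCl2 produced a crude extract, used at 1 mg/mL protein. Exposure to 10 μM compound lasted 30 min, and aliquots were then heated for 3 min across 48°C-58°C, pooled and brought to 0.5% NP-40 at 4°C. The supernatant after 21,000xg for 90 min was quantified by TMTpro 16plex LC-MS/MS with channel sums equalised. Duplicate values are given as log-two fold change in thermal stability relative to solvent controls.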

[1] = compound: Cc1nc(Nc2n[nH]c3c2CN(C(=O)N[C@H](CN(C)C)c2ccccc2)C3(C)C)c2sccc2n1
How it was run: as §1

dasatinib = compound: Cc1nc(Nc2ncc(C(=O)Nc3c(C)cccc3Cl)s2)cc(N2CCN(CCO)CC2)n1 [dasatinib]
How it was run: as §1

[2] = compound: Cc1ncc(-c2ccnc(Nc3ccc(S(C)(=O)=O)cc3)n2)n1C(C)C
How it was run: as §1

[3] = compound: Cn1cc(-c2ccc3c(c2)CCN3C(=O)Cc2cccc(C(F)(F)F)c2)c2c(N)ncnc21
How it was run: as §1

quisinostat = compound: Cn1cc(CNCC2CCN(c3ncc(C(=O)NO)cn3)CC2)c2ccccc21 [quisinostat]
How it was run: as §1

tipifarnib = compound: Cn1cncc1[C@@](N)(c1ccc(Cl)cc1)c1ccc2c(c1)c(-c1cccc(Cl)c1)cc(=O)n2C [tipifarnib]
How it was run: as §1

[4] = compound: NC(=O)Nc1cc(-c2cccc(F)c2)sc1C(=O)N[C@H]1CCCNC1
How it was run: as §1

[5] = compound: NC(=O)c1cnc(N[C@@H]2CCCC[C@@H]2N)nc1Nc1cccc(-n2nccn2)c1
How it was run: as §1

[6] = compound: NC1(c2ccc(-c3nc4ccn5c(=O)[nH]nc5c4cc3-c3ccccc3)cc2)CCC1
How it was run: as §1

Row | Target | log2 fold change (nilotinib) | log2 fold change [1] | log2 fold change (dasatinib) | log2 fold change [2] | log2 fold change [3] | log2 fold change (quisinostat) | log2 fold change (tipifarnib) | log2 fold change [4] | log2 fold change [5] | log2 fold change [6]
1 | PDCD6 (UniProt O75340) | inactive: 0.011 | inactive: 0.018 | inactive: 0.002 | inactive: -0.002 | inactive: -0.001 | inactive: 0.033 | inactive: -0.034 | inactive: -0.023 | inactive: -0.049 | inactive: -0.023
2 | PDZD11 isoform 2 (UniProt Q5EBL8) | inactive: -0.01 | inactive: -0.053 | inactive: 0.003 | inactive: 0.037 | inactive: -0.055 | inactive: 0.01 | inactive: 0.065 | inactive: 0.028 | inactive: 0.07 | inactive: 0.015
3 | PCIF1 (UniProt Q9H4Z3) | inactive: 0.018 | inactive: -0.089 | inactive: 0.118 | inactive: 0.011 | active: -0.439 | inactive: 0.019 | inactive: 0.015 | inactive: -0.016 | inactive: -0.006 | inactive: 0.022
4 | PCMT1 isoform 2 (UniProt P22061) | inactive: 0.04 | inactive: -0.043 | inactive: 0.062 | inactive: -0.016 | inactive: -0.014 | inactive: 0.125 | inactive: 0.042 | inactive: 0 | inactive: -0.001 | inactive: 0.033
5 | PDXK (UniProt O00764) | inactive: 0.123 | inactive: -0.031 | inactive: 0.005 | inactive: 0.055 | inactive: -0.003 | inactive: -0.03 | inactive: 0.012 | inactive: -0.008 | inactive: -0.008 | inactive: -0.023
6 | PELP1 (UniProt Q8IZL8) | inactive: 0.003 | inactive: 0.018 | inactive: -0.003 | inactive: 0.008 | inactive: -0.02 | inactive: -0.063 | inactive: -0.036 | inactive: 0.021 | inactive: 0.005 | inactive: 0.037
7 | PDS5B (UniProt Q9NTI5) | inactive: -0.01 | inactive: 0.018 | inactive: -0.033 | inactive: 0.015 | inactive: 0.019 | inactive: 0.033 | inactive: 0.009 | inactive: 0.051 | inactive: -0.002 | inactive: 0.008
8 | PCBP1 (UniProt Q15365) | inactive: 0.009 | inactive: -0.048 | inactive: -0.005 | inactive: -0.24 | inactive: -0.021 | inactive: 0.008 | inactive: -0.216 | inactive: -0.017 | inactive: -0.013 | inactive: 0.006
9 | PCTP (UniProt Q9UKL6) | inactive: 0.017 | inactive: 0.021 | inactive: -0.03 | inactive: 0.022 | inactive: -0.021 | inactive: -0.018 | inactive: -0.097 | inactive: 0.009 | inactive: 0.029 | inactive: 0
10 | PDLIM1 (UniProt O00151) | inactive: 0.036 | inactive: 0.018 | inactive: 0.001 | inactive: 0.062 | inactive: -0.037 | inactive: 0.037 | inactive: 0.017 | inactive: -0.012 | inactive: -0.02 | inactive: 0.003
11 | PDCD5 (UniProt O14737) | inactive: -0.005 | inactive: -0.008 | inactive: -0.001 | inactive: -0.026 | inactive: -0.07 | inactive: 0.019 | inactive: 0.039 | inactive: -0.008 | inactive: -0.037 | inactive: 0.004
12 | PCBP2 isoform 8 (UniProt Q15366) | inactive: 0.059 | inactive: 0.069 | inactive: -0.057 | inactive: 0.04 | inactive: 0.003 | inactive: 0.133 | inactive: 0.015 | inactive: 0.055 | inactive: -0.091 | inactive: -0.049
13 | PATL1 (UniProt Q86TB9) | inactive: 0.009 | inactive: 0.019 | inactive: -0.047 | inactive: 0.006 | inactive: -0.044 | inactive: 0.005 | inactive: -0.034 | inactive: 0.071 | inactive: -0.006 | inactive: -0.025
14 | PCGF5 (UniProt Q86SE9) | inactive: 0.023 | inactive: 0.12 | inactive: -0.063 | inactive: 0.023 | inactive: 0.017 | inactive: -0.084 | inactive: -0.089 | inactive: 0.077 | inactive: -0.082 | inactive: 0.012
15 | PDIA6 isoform 2 (UniProt Q15084) | inactive: -0.017 | inactive: -0.024 | inactive: 0.015 | inactive: 0.021 | inactive: -0.013 | inactive: 0.017 | inactive: 0.021 | inactive: -0.019 | inactive: 0.022 | inactive: -0.003
16 | PCNT (UniProt O95613) | inactive: -0.043 | inactive: 0.029 | inactive: -0.049 | inactive: 0.012 | inactive: 0.026 | inactive: -0.072 | inactive: -0.016 | inactive: 0.015 | inactive: 0.032 | inactive: -0.007

Row | Target | log2 fold change (nilotinib) | log2 fold change [1] | log2 fold change (dasatinib) | log2 fold change [2] | log2 fold change [3] | log2 fold change (quisinostat) | log2 fold change (tipifarnib) | log2 fold change [4] | log2 fold change [5] | log2 fold change [6]
17 | PFKL isoform 2 (UniProt P17858) | inactive: 0.002 | inactive: 0.006 | inactive: -0.007 | inactive: 0.012 | inactive: -0.011 | inactive: -0.085 | inactive: -0.034 | inactive: 0.03 | inactive: -0.003 | inactive: -0.047
18 | PDHB (UniProt P11177) | inactive: 0.011 | inactive: -0.012 | inactive: -0.036 | inactive: 0.02 | inactive: 0.019 | inactive: -0.026 | inactive: 0.022 | inactive: 0.031 | inactive: 0.015 | inactive: 0.034
19 | PCID2 (UniProt Q5JVF3) | inactive: -0.09 | inactive: 0.021 | inactive: -0.059 | inactive: 0.059 | inactive: -0.022 | inactive: -0.049 | inactive: -0.067 | inactive: 0.012 | inactive: 0.032 | inactive: 0.013
20 | PEX13 (UniProt Q92968) | inactive: -0.042 | inactive: 0.056 | inactive: -0.141 | inactive: 0.078 | inactive: -0.131 | inactive: 0.018 | inactive: -0.011 | inactive: 0.018 | inactive: -0.009 | inactive: -0.105
21 | PCGF2 (UniProt P35227) | inactive: -0.072 | inactive: 0.046 | inactive: 0.042 | inactive: -0.048 | inactive: 0.007 | inactive: -0.011 | inactive: 0.035 | inactive: 0.027 | inactive: -0.065 | inactive: 0.092
22 | PBX2 (UniProt P40425) | inactive: -0.014 | inactive: -0.009 | inactive: -0.023 | inactive: -0.015 | inactive: 0.001 | inactive: -0.006 | inactive: 0.012 | inactive: -0.038 | inactive: 0.065 | inactive: -0.006
23 | PDCD6IP (UniProt Q8WUM4) | inactive: 0.059 | inactive: -0.045 | inactive: -0.023 | inactive: -0.006 | inactive: 0.049 | inactive: 0.001 | inactive: 0.06 | inactive: 0 | inactive: -0.058 | inactive: -0.032
24 | PDCD6IP isoform 2 (UniProt Q8WUM4) | inactive: -0.018 | inactive: 0.007 | inactive: -0.042 | inactive: 0.004 | inactive: 0.022 | inactive: 0.002 | inactive: 0.016 | inactive: -0.001 | inactive: 0.018 | inactive: 0.002
25 | PCYT1A (UniProt P49585) | inactive: -0.14 | inactive: 0.042 | inactive: 0.04 | inactive: -0.001 | inactive: -0.019 | inactive: 0.056 | inactive: -0.006 | inactive: -0.032 | inactive: -0.029 | inactive: 0.007
26 | PEX16 isoform 2 (UniProt Q9Y5Y5) | inactive: -0.032 | inactive: 0.084 | inactive: -0.083 | inactive: 0.024 | inactive: 0.025 | inactive: -0.014 | inactive: -0.092 | inactive: 0.117 | inactive: 0.022 | inactive: -0.117
27 | PDLIM5 (UniProt Q96HC4) | inactive: 0.023 | inactive: 0.003 | inactive: 0.009 | inactive: -0.006 | inactive: -0.023 | inactive: 0.016 | inactive: 0.001 | inactive: -0.023 | inactive: -0.024 | inactive: -0.01
28 | PDIA3 (UniProt P30101) | inactive: 0.019 | inactive: 0.001 | inactive: -0.03 | inactive: -0.01 | inactive: -0.011 | inactive: 0.097 | inactive: 0.008 | inactive: -0.01 | inactive: -0.013 | inactive: 0.011
29 | PFDN4 (UniProt Q9NQP4) | inactive: 0 | inactive: 0.009 | inactive: 0.055 | inactive: -0.018 | inactive: -0.186 | inactive: 0.017 | inactive: 0.042 | inactive: -0.01 | inactive: 0.042 | inactive: 0
30 | PDE6D (UniProt O43924) | inactive: 0.023 | inactive: 0.082 | inactive: 0.024 | inactive: -0.029 | inactive: 0.041 | – | inactive: -0.018 | – | inactive: -0.047 | inactive: 0.007
31 | PDCD7 (UniProt Q8N8D1) | – | – | – | – | – | inactive: 0.031 | – | inactive: 0 | – | –

Retrieved one by one from the entries so far:
Row | Target | log2 fold change (nilotinib) | log2 fold change [1] | log2 fold change (dasatinib) | log2 fold change [2] | log2 fold change [3] | log2 fold change (quisinostat) | log2 fold change (tipifarnib) | log2 fold change [4] | log2 fold change [5] | log2 fold change [6]
23 | PDCD6IP (UniProt Q8WUM4) | inactive: 0.059 | inactive: -0.045 | inactive: -0.023 | inactive: -0.006 | inactive: 0.049 | inactive: 0.001 | inactive: 0.06 | inactive: 0 | inactive: -0.058 | inactive: -0.032
31 | PDCD7 (UniProt Q8N8D1) | – | – | – | – | – | inactive: 0.031 | – | inactive: 0 | – | –
